No constants are given. Whether binding was seen depends on the method and setting. For some assays here: Binding seen in cells or lysates may run through a third protein. Some results given as binding are weak or reduced against the parent protein; the word gives no strength. For some assays here: Where a sequence is shown, tags or fusion partners need not be part of it.
B1: GST-NgR fusion protein containing the entire extracellular domain of NgR (receptor, UniProt Q9BZR6 27-447, looked up)
chain: CPGACVCYNEPKVTTSCPQQGLQAVPVGIPAASQRIFLHGNRISHVPAASFRACRNLTILWLHSNVLARIDAAAFTGLALLEQLDLSDNAQLRSVDPATFHGLGRLHTLHLDRCGLQELGPGLFRGLAALQYLYLQDNALQALPDDTFRDLGNLTHLFLHGNRISSVPERAFRGLHSLDRLLLHQNRVAHVHPHAFRDLGRLMTLYLFANNLSALPTEALAPLRALQYLRLNDNPWVCDCRARPLWAWLQKFRGSSSEVPCSLPQRLAGRDLKRLAANDLQGCAVATGPYHPIWTGRATDEEPLGLPKCCQPDAADKASVLEPGRPASAGNALKGRVPPGDSPPGNGSGPRHINDSPFGTLPGSAEPPLTAVRPEGSEPPGFPTSGPRRRPGCSRKNRTRSHCRLGQAGSGGGGTGDSEGS
notes: extracellular domain; not shown: glutathione S-transferase (GST) fusion partner

Amino acid sequences for entries named in this document (tags omitted). A change or cut given only in a name is not applied to a line headed by its entry.
UniProt P05187: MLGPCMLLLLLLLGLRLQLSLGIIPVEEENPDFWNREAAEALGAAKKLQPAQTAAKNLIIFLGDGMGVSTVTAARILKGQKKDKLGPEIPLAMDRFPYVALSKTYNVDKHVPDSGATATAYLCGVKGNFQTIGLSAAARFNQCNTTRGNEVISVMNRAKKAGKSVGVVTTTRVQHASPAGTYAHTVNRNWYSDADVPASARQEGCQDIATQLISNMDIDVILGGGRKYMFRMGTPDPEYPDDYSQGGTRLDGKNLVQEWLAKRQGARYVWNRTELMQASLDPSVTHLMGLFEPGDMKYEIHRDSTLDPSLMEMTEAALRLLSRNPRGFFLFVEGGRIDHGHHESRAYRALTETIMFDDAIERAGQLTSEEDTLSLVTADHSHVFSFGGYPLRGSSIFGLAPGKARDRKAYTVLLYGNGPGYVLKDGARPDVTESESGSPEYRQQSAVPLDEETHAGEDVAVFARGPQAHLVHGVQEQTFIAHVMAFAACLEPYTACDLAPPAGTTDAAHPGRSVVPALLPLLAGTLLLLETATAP

Key:
[1] = target: T1, Nogo-66 receptor (NgR), full-length, expressed on transfected cells (human) (UniProt Q9BZR6); assay: AP fusion protein in conditioned medium on NgR-expressing CHO cells
T1 sequence (looked up): B1 chain

[2] = target: T2, AP-OMgp fusion protein (mouse) (UniProt Q63912); assay: coimmunoprecipitation
T2 sequence (looked up): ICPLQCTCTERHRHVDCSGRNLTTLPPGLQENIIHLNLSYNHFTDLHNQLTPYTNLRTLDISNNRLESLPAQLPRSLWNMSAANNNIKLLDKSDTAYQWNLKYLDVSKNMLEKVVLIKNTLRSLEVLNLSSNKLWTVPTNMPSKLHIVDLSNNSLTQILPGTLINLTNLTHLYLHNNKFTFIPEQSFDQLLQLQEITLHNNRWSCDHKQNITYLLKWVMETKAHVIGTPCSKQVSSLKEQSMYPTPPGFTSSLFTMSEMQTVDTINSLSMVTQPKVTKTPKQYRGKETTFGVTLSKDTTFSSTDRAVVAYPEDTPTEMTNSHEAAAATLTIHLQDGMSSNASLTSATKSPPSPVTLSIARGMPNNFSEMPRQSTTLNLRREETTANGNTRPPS

Molecule	binding [1]	binding [2]
AP-OMgp-LRR (from UniProt P05187 23-511; Q63912 25-228) (ligand)	binds	
B1		binds

Source: patent US20030113325A1 (CHILDREN S MEDICAL CENTER, published 2003)
